Assay [1] concerns the target T1, SNAP-Fbs1 fusion protein (wild-type human Fbs1 sugar-binding domain, residues 92-296) (human) (UniProt Q9UK22).
T1 sequence: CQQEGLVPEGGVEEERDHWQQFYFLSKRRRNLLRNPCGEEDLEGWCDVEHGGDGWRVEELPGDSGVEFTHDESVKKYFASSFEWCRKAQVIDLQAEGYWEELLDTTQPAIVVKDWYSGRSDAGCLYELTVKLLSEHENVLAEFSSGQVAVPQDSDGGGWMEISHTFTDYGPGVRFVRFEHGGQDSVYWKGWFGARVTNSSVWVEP
Briefly: pull-down; wt or GYR SNAP-Fbs1 on BG beads; TMR-labelled glycopeptides; 4 °C, 1 h; bound amount from the TMR fluorescence left in the supernatant, given as recovery percentage; low salt (50 mM NaCl or 50 mM ammonium acetate pH 7.5) or high salt (2 M NaCl); both purified.

Assay [2] concerns the target T2, SNAP-Fbs1 GYR variant (S155G, F173Y, E174R) (human) (UniProt Q9UK22).
T2 sequence: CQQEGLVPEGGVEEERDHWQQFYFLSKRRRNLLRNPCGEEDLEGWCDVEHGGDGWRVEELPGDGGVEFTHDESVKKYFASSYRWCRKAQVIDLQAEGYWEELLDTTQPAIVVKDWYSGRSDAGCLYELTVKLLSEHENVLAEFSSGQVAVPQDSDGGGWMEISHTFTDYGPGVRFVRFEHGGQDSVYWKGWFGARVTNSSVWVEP
The assay is described as above.

In assay [3] the target is T1, SNAP-Fbs1 fusion protein (wild-type human Fbs1 sugar-binding domain, residues 92-296) (human). Nature of the assay: pull-down; wt, GYR or PPRYR SNAP-Fbs1 on BG beads; mixture of denatured fetuin and RNase B; low salt (50 mM ammonium acetate pH 7.5 named for Fig. 4a); 4 °C, 1 h; SDS-PAGE; both purified.
For assay [4], the target named is T3, SNAP-Fbs1 PPRYR variant (combination of PPR and YR) (human) (UniProt Q9UK22).
T3 sequence: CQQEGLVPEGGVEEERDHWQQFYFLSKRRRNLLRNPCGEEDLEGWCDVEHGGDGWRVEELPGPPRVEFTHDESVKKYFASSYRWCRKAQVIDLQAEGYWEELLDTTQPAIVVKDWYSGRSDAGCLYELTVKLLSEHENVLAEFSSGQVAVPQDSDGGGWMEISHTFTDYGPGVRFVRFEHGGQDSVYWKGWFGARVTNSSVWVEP
The assay is described as above.

The target of assay [5] is T2, SNAP-Fbs1 GYR variant (S155G, F173Y, E174R) (human). The assay is described as above.
For assay [6], the target named is T1, SNAP-Fbs1 fusion protein (wild-type human Fbs1 sugar-binding domain, residues 92-296) (human). Nature of the assay: pull-down; SNAP-Fbs1 on BG beads; mixture of denatured fetuin and RNase B; high salt (2 M ammonium acetate pH 7.5 named for Fig. 4a); 4 °C, 1 h; SDS-PAGE; both purified.
Assay [7] shares this target. Nature of the assay: pull-down; wt, GYR or PPRYR SNAP-Fbs1 on BG beads; mixture of denatured fetuin and RNase B; low salt (50 mM ammonium acetate pH 7.5 named for Fig. 4a); 4 °C, 1 h; SDS-PAGE; both purified. The source holds these as a separate data set.
Assay [8] has as its target T3, SNAP-Fbs1 PPRYR variant (combination of PPR and YR) (human). The description is as above. This is another data set of the same source.
The target in assay [9] is T1, SNAP-Fbs1 fusion protein (wild-type human Fbs1 sugar-binding domain, residues 92-296) (human). Nature of the assay: pull-down; SNAP-Fbs1 on BG beads; RNase B or human IgG denatured by boiling in 0.5% SDS and 40 mM DTT, 1% NP-40 added, untreated or treated with PNGase F; 4 °C, 1 h; SDS-PAGE with Coomassie blue; both purified.
The target in assay [10] is T4, fetuin (UniProt P12763 19-359, sialylated complex N-linked glycans).
T4 construct: fetuin; Denatured by boiling in Rapid PNGase F buffer, or on Affi-Gel 15 beads with 6 M guanidine-HCl; also called sialylated fetuin; fetuin beads; source: bought: New England Biolabs; denatured before the assay
T4 sequence (looked up): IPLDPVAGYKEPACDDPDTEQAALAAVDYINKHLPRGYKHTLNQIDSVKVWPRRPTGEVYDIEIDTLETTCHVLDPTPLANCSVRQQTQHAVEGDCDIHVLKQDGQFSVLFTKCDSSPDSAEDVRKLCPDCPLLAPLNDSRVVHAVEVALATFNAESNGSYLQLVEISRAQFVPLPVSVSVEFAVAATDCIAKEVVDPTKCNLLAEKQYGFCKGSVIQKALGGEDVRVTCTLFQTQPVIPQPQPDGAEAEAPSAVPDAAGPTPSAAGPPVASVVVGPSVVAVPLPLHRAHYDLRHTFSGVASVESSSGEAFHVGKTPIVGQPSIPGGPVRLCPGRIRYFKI
Nature of the assay: pull-down; fetuin (Affi-Gel 15) or RNase B (Affi-Gel 10) beads, denatured with 6 M guanidine-HCl; E. coli cell lysate with wt or mutant SNAP-Fbs1; 20 mM Tris.HCl pH 7.5, 1 mM EDTA, 50 mM NaCl (low salt) or 2 M NaCl (high salt), 30% Protein-Free Blocking buffer; 4 °C, 1 h; SDS-PAGE, ImageJ; only the target purified.

The target of assay [11] is RNase B (UniProt P61823). The description is as above.
The target in assay [12] is T4, fetuin. Briefly: plasmid display capture; complexes of p50-wt Fbs1 and its encoding plasmid from gently lysed E. coli, incubated with immobilised RNase B or fetuin; captured plasmid as read-out; only the target purified.
Assay [13] deals with RNase B (UniProt P61823). Described as above.

Like-named read-outs stand apart in the source and are kept apart here. No constants are given. Whether binding was seen depends on the method and setting. For part of these data: In cells and extracts the contact can be indirect. Some binding calls cover weakened binding; strength is not graded here. For part of these data: Sequences can lack the tags named with a protein.

Consider KVANKT (N-glycan of SGP without sialic acids; two TMR fluorophores on the lysines) [asialo-SGP-TMR], for which the binding result in [1] and in assay [2] was “binds” throughout.

B1: fetuin (protein, UniProt P12763 19-359)
chain: IPLDPVAGYKEPACDDPDTEQAALAAVDYINKHLPRGYKHTLNQIDSVKVWPRRPTGEVYDIEIDTLETTCHVLDPTPLANCSVRQQTQHAVEGDCDIHVLKQDGQFSVLFTKCDSSPDSAEDVRKLCPDCPLLAPLNDSRVVHAVEVALATFNAESNGSYLQLVEISRAQFVPLPVSVSVEFAVAATDCIAKEVVDPTKCNLLAEKQYGFCKGSVIQKALGGEDVRVTCTLFQTQPVIPQPQPDGAEAEAPSAVPDAAGPTPSAAGPPVASVVVGPSVVAVPLPLHRAHYDLRHTFSGVASVESSSGEAFHVGKTPIVGQPSIPGGPVRLCPGRIRYFKI
modifications: sialylated complex N-linked glycans
For B1, the binding entry is “binds weakly” in assay [3], “binds” in [4], “binds” in [5] and “binds” in assay [6].

B2: RNase B (natural protein, UniProt P61823 27-150, looked up)
chain: KETAAAKFERQHMDSSTSAASSSNYCNQMMKSRNLTKDRCKPVNTFVHESLADVQAVCSQKNVACKNGQTNCYQSYSTMSITDCRETGSSKYPNCAYKTTQANKHIIVACEGNPYVPVHFDASV
modifications: a single site modified by a variety of high-mannose N-glycans
notes: RNase B, the N-glycosylated form of pancreatic ribonuclease; Denatured by boiling (SDS/DTT or Rapid PNGase F buffer), or on Affi-Gel 10 beads with 6 M guanidine-HCl; source: bought: New England Biolabs; denatured before the assay
For the molecule B2, the binding result in assay [7], in [8], in [9] and in assay [6] was “binds” each time.

B3: SNAP-Fbs1 fusion protein (wild-type human Fbs1 sugar-binding domain, residues 92-296) (domain or fragment, UniProt Q9UK22 92-296)
chain: CQQEGLVPEGGVEEERDHWQQFYFLSKRRRNLLRNPCGEEDLEGWCDVEHGGDGWRVEELPGDSGVEFTHDESVKKYFASSFEWCRKAQVIDLQAEGYWEELLDTTQPAIVVKDWYSGRSDAGCLYELTVKLLSEHENVLAEFSSGQVAVPQDSDGGGWMEISHTFTDYGPGVRFVRFEHGGQDSVYWKGWFGARVTNSSVWVEP
Turning to B3, the binding result in assay [10] and in [11] was “binds” throughout.

B4: SNAP-Fbs1 YR variant (F173Y/E174R) (designed binder, UniProt Q9UK22 92-296)
chain: CQQEGLVPEGGVEEERDHWQQFYFLSKRRRNLLRNPCGEEDLEGWCDVEHGGDGWRVEELPGDSGVEFTHDESVKKYFASSYRWCRKAQVIDLQAEGYWEELLDTTQPAIVVKDWYSGRSDAGCLYELTVKLLSEHENVLAEFSSGQVAVPQDSDGGGWMEISHTFTDYGPGVRFVRFEHGGQDSVYWKGWFGARVTNSSVWVEP
Turning to B4, the binding result in assay [10] is recorded as “binds”.

B5: SNAP-Fbs1 PPR variant (designed binder, UniProt Q9UK22 92-296)
chain: CQQEGLVPEGGVEEERDHWQQFYFLSKRRRNLLRNPCGEEDLEGWCDVEHGGDGWRVEELPGPPRVEFTHDESVKKYFASSFEWCRKAQVIDLQAEGYWEELLDTTQPAIVVKDWYSGRSDAGCLYELTVKLLSEHENVLAEFSSGQVAVPQDSDGGGWMEISHTFTDYGPGVRFVRFEHGGQDSVYWKGWFGARVTNSSVWVEP
On to B5, for which the binding entry in assay [10] is “binds”.

B6: SNAP-Fbs1 PPG variant (designed binder, UniProt Q9UK22 92-296)
chain: CQQEGLVPEGGVEEERDHWQQFYFLSKRRRNLLRNPCGEEDLEGWCDVEHGGDGWRVEELPGPPGVEFTHDESVKKYFASSFEWCRKAQVIDLQAEGYWEELLDTTQPAIVVKDWYSGRSDAGCLYELTVKLLSEHENVLAEFSSGQVAVPQDSDGGGWMEISHTFTDYGPGVRFVRFEHGGQDSVYWKGWFGARVTNSSVWVEP
Turning to B6, in assay [10], the binding result is listed as “binds”.

B7: SNAP-Fbs1 PPS variant (designed binder, UniProt Q9UK22 92-296)
chain: CQQEGLVPEGGVEEERDHWQQFYFLSKRRRNLLRNPCGEEDLEGWCDVEHGGDGWRVEELPGPPSVEFTHDESVKKYFASSFEWCRKAQVIDLQAEGYWEELLDTTQPAIVVKDWYSGRSDAGCLYELTVKLLSEHENVLAEFSSGQVAVPQDSDGGGWMEISHTFTDYGPGVRFVRFEHGGQDSVYWKGWFGARVTNSSVWVEP
As for B7, in [10], the binding result was “binds”.

B8: p50-Fbs1 fusion protein (wild type) of the plasmid display (domain or fragment, UniProt Q9UK22 92-296)
chain: CQQEGLVPEGGVEEERDHWQQFYFLSKRRRNLLRNPCGEEDLEGWCDVEHGGDGWRVEELPGDSGVEFTHDESVKKYFASSFEWCRKAQVIDLQAEGYWEELLDTTQPAIVVKDWYSGRSDAGCLYELTVKLLSEHENVLAEFSSGQVAVPQDSDGGGWMEISHTFTDYGPGVRFVRFEHGGQDSVYWKGWFGARVTNSSVWVEP
With B8, the binding result is recorded as “binds weakly” in assay [12] and “binds” in assay [13].

(Values after article PMC5457524, “An engineered high affinity Fbs1 carbohydrate binding protein for selective capture of N-glycans and N-glycopeptides” (Nature Communications, 2017).)
